Our source for the binding values is PMC3124419, “Elucidating the domain architecture and functions of non-core RAG1: The capacity of a non-core zinc-binding domain to function in nuclear import and nucleic acid binding” (BMC Biochemistry, 2011).

Test [1] concerns the target MBP-RAG1(1-86) (murine) (UniProt P15919). Kind of test: SEC; Superdex 200, 20 ml column volume; column buffer 20 mM Tris pH 8.0, 0.2 M NaCl, 50 μM ZnCl2, 5 mM βME; both purified.
For test [2] the target is unchanged. The test can be described thus: SEC-MALS; MALLS-SEC of MBP fusion proteins, 20 mL Superdex 200, starting concentration 3-10 μM, GFB buffer (20 mM Tris pH 8.0, 0.2 M NaCl, 50 μM ZnCl2, 5 mM βME); both purified. (In general: Size exclusion chromatography separates by hydrodynamic size, large species first.)
In a further test the target is MBP-CND (murine) (UniProt P15919). The description is as above.
For the next test, the target named is tagless CND (murine) (UniProt P15919). Kind of test: SEC-MALS; MALLS-SEC of the tagless domain, 120 mL Superdex 75, loading concentration 23 μM, GFB buffer; both purified.

No constants are given. Whether binding was seen depends on the method and setting. Sequences can lack the tags named with a protein.

B1: MBP-RAG1(1-86) (domain or fragment, UniProt P15919 1-86)
chain: MAASLPSTLSFSSAPDEIQHPQIKFSEWKFKLFRVRSFEKAPEEAQKEKDSSEGKPYLEQSPVVPEKPGGQNSILTQRALKLHPKF
On to B1, for which the figures for the binding result with MBP-RAG1(1-86) (murine) [1] and in the test with MBP-RAG1(1-86) (murine) [2] were “no binding” and “no binding (tested: 3-10 μM starting concentration)”, respectively.

B2: MBP-CND (domain or fragment, UniProt P15919 87-217)
chain: SKKFHADGKSSDKAVHQARLRHFCRICGNRFKSDGHSRRYPVHGPVDAKTQSLFRKKEKRVTSWPDLIARIFRIDVKADVDSIHPTEFCHDCWSIMHRKFSSSHSQVYFPRKVTVEWHPHTPSCDICFTAH
As for B2, the binding entry with MBP-CND (murine) is on record as “no binding (tested: 3-10 μM starting concentration)”.

B3: tagless CND (domain or fragment, UniProt P15919 87-217)
chain: SKKFHADGKSSDKAVHQARLRHFCRICGNRFKSDGHSRRYPVHGPVDAKTQSLFRKKEKRVTSWPDLIARIFRIDVKADVDSIHPTEFCHDCWSIMHRKFSSSHSQVYFPRKVTVEWHPHTPSCDICFTAH
B3: the binding entry with tagless CND (murine) is recorded as “no binding (tested: 23 μM loading concentration)”.
